Here are results for two substances from article PMC3906104.

Chains of the proteins cited; added tags and fusions are not shown. Lines headed by an entry give the natural chain unless they say otherwise; changes in a name come on top. A line that says so, or that is headed by a name, gives the form on record, which may keep a tag or linker.
UniProt P61073: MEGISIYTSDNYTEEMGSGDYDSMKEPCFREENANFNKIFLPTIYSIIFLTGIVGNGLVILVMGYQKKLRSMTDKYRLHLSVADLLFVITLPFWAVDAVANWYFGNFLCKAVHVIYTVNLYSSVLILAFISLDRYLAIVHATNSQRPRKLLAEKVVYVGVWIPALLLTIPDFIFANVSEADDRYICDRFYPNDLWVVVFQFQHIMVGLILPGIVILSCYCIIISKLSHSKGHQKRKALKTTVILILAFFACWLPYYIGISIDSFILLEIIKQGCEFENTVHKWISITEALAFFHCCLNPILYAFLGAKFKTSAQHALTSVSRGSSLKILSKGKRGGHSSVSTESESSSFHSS
FLAG-tagged wt AIP4 (Atropin Interacting Protein 4) (Q96J02-2, form named): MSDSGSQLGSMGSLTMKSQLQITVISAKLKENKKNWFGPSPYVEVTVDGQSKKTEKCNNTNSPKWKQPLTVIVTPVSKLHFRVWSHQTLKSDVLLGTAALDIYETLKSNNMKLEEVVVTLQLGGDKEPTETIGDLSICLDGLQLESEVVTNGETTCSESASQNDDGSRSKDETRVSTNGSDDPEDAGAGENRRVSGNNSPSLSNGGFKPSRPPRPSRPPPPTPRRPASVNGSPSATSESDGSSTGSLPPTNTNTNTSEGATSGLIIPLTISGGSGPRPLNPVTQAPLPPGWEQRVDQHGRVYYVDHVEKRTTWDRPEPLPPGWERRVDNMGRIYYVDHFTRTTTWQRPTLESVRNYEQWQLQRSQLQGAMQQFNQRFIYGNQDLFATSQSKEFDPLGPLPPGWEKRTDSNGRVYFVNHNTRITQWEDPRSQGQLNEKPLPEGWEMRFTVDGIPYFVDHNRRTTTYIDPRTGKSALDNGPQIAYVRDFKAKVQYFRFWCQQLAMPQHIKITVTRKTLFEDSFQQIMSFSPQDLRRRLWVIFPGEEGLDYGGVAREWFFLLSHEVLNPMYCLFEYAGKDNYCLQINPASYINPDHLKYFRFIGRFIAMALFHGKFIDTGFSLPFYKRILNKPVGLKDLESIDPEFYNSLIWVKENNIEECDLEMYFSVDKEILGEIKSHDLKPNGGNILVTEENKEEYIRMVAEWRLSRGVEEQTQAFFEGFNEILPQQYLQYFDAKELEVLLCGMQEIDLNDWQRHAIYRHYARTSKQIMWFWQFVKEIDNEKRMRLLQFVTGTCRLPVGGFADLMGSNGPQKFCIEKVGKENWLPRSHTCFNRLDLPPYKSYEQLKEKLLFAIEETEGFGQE
FLAG-tagged Q297A/N329A AIP4 mutant (Q96J02-2, form named): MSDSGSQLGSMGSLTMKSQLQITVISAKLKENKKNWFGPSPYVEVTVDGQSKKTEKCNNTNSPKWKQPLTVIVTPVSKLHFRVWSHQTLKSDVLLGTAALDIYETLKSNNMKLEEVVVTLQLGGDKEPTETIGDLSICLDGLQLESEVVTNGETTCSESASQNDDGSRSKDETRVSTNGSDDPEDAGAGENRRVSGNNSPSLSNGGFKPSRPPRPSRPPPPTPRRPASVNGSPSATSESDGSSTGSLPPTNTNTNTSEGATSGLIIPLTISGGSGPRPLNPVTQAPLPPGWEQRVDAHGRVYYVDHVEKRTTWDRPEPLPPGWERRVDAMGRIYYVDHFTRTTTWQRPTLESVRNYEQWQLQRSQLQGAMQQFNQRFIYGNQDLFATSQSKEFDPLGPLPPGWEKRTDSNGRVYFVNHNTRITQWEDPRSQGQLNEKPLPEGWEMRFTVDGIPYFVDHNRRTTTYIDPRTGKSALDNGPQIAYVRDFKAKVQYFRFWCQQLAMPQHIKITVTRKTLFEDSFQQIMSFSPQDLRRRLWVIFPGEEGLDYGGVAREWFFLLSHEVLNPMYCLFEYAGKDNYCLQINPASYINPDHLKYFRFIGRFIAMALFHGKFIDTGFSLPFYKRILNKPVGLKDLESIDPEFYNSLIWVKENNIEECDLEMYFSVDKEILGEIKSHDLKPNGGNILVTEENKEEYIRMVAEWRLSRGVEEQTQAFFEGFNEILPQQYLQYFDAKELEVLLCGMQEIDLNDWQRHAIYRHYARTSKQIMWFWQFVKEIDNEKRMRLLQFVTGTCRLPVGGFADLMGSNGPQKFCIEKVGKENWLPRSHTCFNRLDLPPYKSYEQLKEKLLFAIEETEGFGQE

These are yes or no findings as the source states them, for the method shown. In cells and extracts the contact can be indirect. Some binding calls cover weakened binding; strength is not graded here.

The target of the assay is 6-His tagged CXCR4 (human) (UniProt P61073). Description: pull-down; 6-His tagged CXCR4 recovered on Ni-NTA agarose (6 hours at 4°C) from lysates of Jurkat cells co-transfected with CXCR4-His, GFP, FLAG-wt or mutant AIP4 and Nef or a null plasmid; lysis buffer 20 mM Tris pH 8.0, 150 mM NaCl, 1% Triton X-100; co-precipitated AIP4 detected by blot with anti-FLAG M2; no agonist; the paper calls it a co-precipitation assay.

In the case of “FLAG-tagged wt AIP4 (Atropin Interacting Protein 4) (from UniProt Q96J02-2 1-862) (enzyme)”, the binding result is on record as “binds”. “FLAG-tagged Q297A/N329A AIP4 mutant (from UniProt Q96J02-2 1-862) (enzyme)”: the binding entry is given as “no binding”.
